Data as given in PMC11058053.
Results are given in words; binding and its absence hold for the method and conditions named. In cells and extracts the contact can be indirect. These calls come from enrichment with a bait or labelling near it, and not all partners need be listed.

Target: T1, neuronatin (not stated (human EndoC-βH1 and rat INS1E cells cultured; the sentence stands in the section on human beta cells)) (UniProt Q16517)
T1 sequence: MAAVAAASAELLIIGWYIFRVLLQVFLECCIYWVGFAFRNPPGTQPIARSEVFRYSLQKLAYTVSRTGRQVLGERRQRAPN
Assay: affinity purification with mass spectrometry; cells processed for immunoprecipitation with antibodies against NNAT (ab27266, Abcam, 1:500), then mass spectrometry; details in the ESM Methods

B1: SPCS1 (protein, UniProt Q9Y6A9 1-169)
chain: MARGGDTGCTGPSETSASGAAAIALPGLEGPATDAQCQTLPLTVLKSRSPSPRSLPPALSCPPPQPAMLEHLSSLPTQMDYKGQKLAEQMFQGIILFSAIVGFIYGYVAEQFGWTVYIVMAGFAFSCLLTLPPWPIYRRHPLKWLPVQESSTDDKKPGERKIKRHAKNN
Q: Which binding does the source give for B1 here?
A: binds
